Experimental data taken from PubChem BioAssay AID493194 (Broad Institute, 2011).
Inconclusive means that the source gave no clear call. Such entries were picked first, then a sample of the others. Calls of active or inactive are those of the source.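 Rule for the calls: active = a valid curve of falling signal whose half-effect concentration is at most ten times the top tested dose; inconclusive = flat curve at 30 to 70% inhibition, or poor fit; inactive = signal rise, flat within 30%, or potency beyond limit.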

By UniProt entry, the sequences of proteins in these tests, tags left out. Where a name states a change or a piece, a line headed by the entry shows the natural chain unless it says otherwise.
UniProt Q61009: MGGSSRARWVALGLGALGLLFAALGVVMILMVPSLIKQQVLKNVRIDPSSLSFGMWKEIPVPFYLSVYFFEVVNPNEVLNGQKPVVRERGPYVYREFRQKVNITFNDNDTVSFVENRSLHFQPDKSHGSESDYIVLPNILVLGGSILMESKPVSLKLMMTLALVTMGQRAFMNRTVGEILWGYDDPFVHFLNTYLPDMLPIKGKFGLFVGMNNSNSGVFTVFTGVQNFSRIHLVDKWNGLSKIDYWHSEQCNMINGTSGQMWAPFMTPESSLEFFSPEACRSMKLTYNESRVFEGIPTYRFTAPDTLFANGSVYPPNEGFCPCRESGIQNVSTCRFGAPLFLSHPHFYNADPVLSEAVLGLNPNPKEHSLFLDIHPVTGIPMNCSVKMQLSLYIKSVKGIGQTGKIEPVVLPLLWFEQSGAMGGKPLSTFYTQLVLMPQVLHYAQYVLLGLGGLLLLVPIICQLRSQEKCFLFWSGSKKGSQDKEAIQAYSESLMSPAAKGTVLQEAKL

Target: Scavenger receptor class B member 1 (Mus musculus) (UniProt Q61009)
Assay: inhibitors of SR-BI mediated HDL lipid uptake, dose response, ldlA[mSR-BI] cells, fluorescence, cherry pick (AID 493194);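 note: CHO cells lacking LDL receptor and overexpressing mouse SR-BI; cellular uptake of fluorescently labeled HDL measured as cell fluorescence; 0% = median of neutral control wells and -100% = median of positive control wells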
Settings: CHO ldlA[mSR-BI] DiI-HDL uptake fluorescence, 3 h; at 35 µM (top of the series)

| SMILES | activity change, negative = inhibition |
| --- | --- |
| Nc1c(-c2cccs2)cnn1-c1nc(-c2ccc(F)cc2)cs1 | inconclusive: -32.7% |
| N#CCCN(C(=O)COC(=O)CCc1c[nH]c2ccccc12)c1ccccc1 | inconclusive: -35.6% |
| O=C(c1ccc([N+](=O)[O-])cc1)N1CCOC12CCN(c1ncc(C(F)(F)F)cc1Cl)CC2 | inconclusive: 4% |
| O=C(Nc1nc(-c2ccccn2)cs1)c1ccc(-c2ccccc2F)o1 | inactive: 10.7% |
| Cc1c(C(=O)Nc2cccc(Cl)c2)c2ccccn2c1CCc1ccncc1 | inactive: 1.1% |
| COc1cc(/C=N/NC(=O)Cc2csc(C)n2)ccc1OCC(C)C | inconclusive: -9.34% |
| COc1ccc(OC)c(CCNC(=O)c2ccc3c(c2)N(Cc2ccccc2)CCS3)c1 | inactive: 62.2% |
| Cn1c(C(=O)N2CCC(C(=O)N3CCN(Cc4ccc5c(c4)OCO5)CC3)CC2)cc2sccc21 | inactive: -21.5% |
| COc1ccc(N2C(=O)C3C(C2=O)C3(c2ccccc2)c2ccccc2)cc1 (stereo unspecified) | inactive: 26.6% |
| COc1cc(OC)cc(-c2c(-c3cccs3)c3cc(-c4ccc5cc[nH]c5c4)ccc3n2C)c1 | inconclusive: -50.2% |
| COc1ccc(-c2csc(NCCc3nc4cc(Cl)c(N5CCCCC5)cc4n3CCOCCO)n2)cc1 | inconclusive: -35.5% |
| COc1ccc(N(CC(=O)NC2CCCC2)C(=O)Cn2nnc(-c3ccc(C)cc3)n2)cc1 | inactive: 0.875% |
| Cc1ccccc1C(=O)NC1CC2CCCC(C1)N2C(=O)Nc1ccccc1 (stereo unspecified) | inactive: 8.56% |
| c1ccc(CCNc2nc(-c3ccncc3)nc3ccccc23)cc1 | inactive: -17.9% |
| Clc1ccc(-c2cc(-c3nnc4n3CCCCC4)c3ccccc3n2)cc1 | inconclusive: -31.5% |
| Cc1ccc2nc(-c3ccccc3)cc(C(=O)N3CCN(c4ccccc4O)CC3)c2c1 | inactive: -7.75% |

| SMILES | activity change, negative = inhibition |
| --- | --- |
| CC(C)(C)N(Cc1ccccc1)C(=O)COC(=O)CN1C(=O)NC2(CCCC2)C1=O | inactive: 55.6% |
| Cc1ccc(NC(=O)c2cc(-c3ccco3)nc3ccccc23)cc1S(=O)(=O)N1CCOCC1 | inconclusive: -16.1% |
| Cc1ccc(C)c(NC(=O)C(CC(=O)O)C2CCCO2)c1 (stereo unspecified) | inconclusive: -8.6% |
| CCC1CN(C(=O)N2CCC(C(=O)NCc3ccccc3OC)CC2)c2cc(C)ccc2O1 (stereo unspecified) | inconclusive: 2.06% |
| O=C(NCCc1ccccc1)C1CCN(C(=O)c2sccc2-n2cccc2)CC1 | inconclusive: -13.8% |
| Cc1ccc2c(c1)C(=O)C(=O)N2CC(=O)Nc1ccc(N2CCOCC2)cc1 | inactive: 23.3% |
| CCc1nc(N2CCN(C(=S)NCCCOC)CC2)c2c3c(sc2n1)CCCC3 | inconclusive: -34.8% |
| CC(=O)Oc1ccc(C(=O)Nc2cc(NC(=O)c3ccc(OC(C)=O)cc3)cc(C(=O)NC(C)(C)C)c2)cc1 | inconclusive: 1.92% |
| O=C(Nc1ccc(N2CCOCC2)cc1)c1cc2c(s1)CCCC2 | inconclusive: 0.323% |
| CN(C)C(=O)c1ccc(-n2nc(C(F)(F)F)c3c2CCCC3)cc1 | inconclusive: -2.21% |
| CC(C)=CCc1c2c(c3occ(-c4ccc(O)c(O)c4)c(=O)c3c1O)C=CC(C)(C)O2 | inconclusive: -2.54% |
| CCCCCCCCOC(=O)CCc1c(C)[nH]c(=S)[nH]c1=O | inconclusive: -6.28% |
| Cc1c(Nc2nc3ccccc3nc2N2CCN(c3ccccc3)CC2)c(=O)n(-c2ccccc2)n1C | inactive: -22% |
| Cc1cc(N2CCN(C(=O)c3ccco3)CC2)n2ncc(-c3ccccc3)c2n1 | inactive: 0.033% |
| C[C@@H]1COC(=O)[C@H](NC(=O)OCC2c3ccccc3-c3ccccc32)C/C=C\C[C@@H](CC(=O)N[C@@H](CO)Cc2ccccc2)C(=O)N1 | inconclusive: -11.3% |

Of the compounds above, these contain a CF3 group.

| SMILES | activity change, negative = inhibition |
| --- | --- |
| O=C(c1ccc([N+](=O)[O-])cc1)N1CCOC12CCN(c1ncc(C(F)(F)F)cc1Cl)CC2 | inconclusive: 4% |
| CN(C)C(=O)c1ccc(-n2nc(C(F)(F)F)c3c2CCCC3)cc1 | inconclusive: -2.21% |
